Laboratory results as given in publication PMC7930037.
These are yes or no findings as the source states them, for the method shown. Tags and fused reporters may be left off the sequences shown. Blank lines part the entries; values can stand above or below the molecule they belong to.

By UniProt entry, the sequences of proteins in these tests, tags left out.
UniProt P54619: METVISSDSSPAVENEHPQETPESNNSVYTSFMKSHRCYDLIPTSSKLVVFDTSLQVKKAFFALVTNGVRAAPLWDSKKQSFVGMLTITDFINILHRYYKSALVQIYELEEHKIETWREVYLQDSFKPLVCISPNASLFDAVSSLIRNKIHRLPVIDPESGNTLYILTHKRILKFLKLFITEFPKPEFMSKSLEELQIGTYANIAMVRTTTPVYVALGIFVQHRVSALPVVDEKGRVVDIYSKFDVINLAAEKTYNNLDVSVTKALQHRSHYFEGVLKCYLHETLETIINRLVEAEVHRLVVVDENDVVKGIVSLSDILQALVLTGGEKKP

How the values were obtained:
GST-tagged WBP2 = target: T1, GST-tagged WBP2 (UniProt Q969T9); assay: pull-down; GST fusion from E. coli extract on glutathione-Sepharose 4B beads (2 h, 4 °C), incubated with purified Flag-tagged protein; eluted with 20 mM reduced glutathione; anti-Flag blot; purified GST as control; both purified
T1 sequence: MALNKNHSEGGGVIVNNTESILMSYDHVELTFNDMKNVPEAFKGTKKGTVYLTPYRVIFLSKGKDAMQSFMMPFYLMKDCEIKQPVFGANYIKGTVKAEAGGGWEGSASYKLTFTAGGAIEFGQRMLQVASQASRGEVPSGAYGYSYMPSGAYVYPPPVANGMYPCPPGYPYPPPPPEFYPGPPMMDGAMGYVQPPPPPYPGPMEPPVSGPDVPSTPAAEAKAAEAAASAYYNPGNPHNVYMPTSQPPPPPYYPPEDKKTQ

GST-AMPKγ1 = GST-AMPKγ1 (UniProt P54619); assay: as above

binding (GST-tagged WBP2): no binding
Molecule: Flag-tagged AMPKγ1 (from UniProt P54619 1-331)

binding (GST-AMPKγ1): no binding
B1: Flag-tagged WBP2 (protein, UniProt Q969T9 1-261)
chain: T1 sequence
